In PMC3567102:
Results are given in words; binding and its absence hold for the method and conditions named.

By UniProt entry, the sequences of proteins in these tests, tags left out. Residues count along the entry.
UniProt P02769, residues 25-607: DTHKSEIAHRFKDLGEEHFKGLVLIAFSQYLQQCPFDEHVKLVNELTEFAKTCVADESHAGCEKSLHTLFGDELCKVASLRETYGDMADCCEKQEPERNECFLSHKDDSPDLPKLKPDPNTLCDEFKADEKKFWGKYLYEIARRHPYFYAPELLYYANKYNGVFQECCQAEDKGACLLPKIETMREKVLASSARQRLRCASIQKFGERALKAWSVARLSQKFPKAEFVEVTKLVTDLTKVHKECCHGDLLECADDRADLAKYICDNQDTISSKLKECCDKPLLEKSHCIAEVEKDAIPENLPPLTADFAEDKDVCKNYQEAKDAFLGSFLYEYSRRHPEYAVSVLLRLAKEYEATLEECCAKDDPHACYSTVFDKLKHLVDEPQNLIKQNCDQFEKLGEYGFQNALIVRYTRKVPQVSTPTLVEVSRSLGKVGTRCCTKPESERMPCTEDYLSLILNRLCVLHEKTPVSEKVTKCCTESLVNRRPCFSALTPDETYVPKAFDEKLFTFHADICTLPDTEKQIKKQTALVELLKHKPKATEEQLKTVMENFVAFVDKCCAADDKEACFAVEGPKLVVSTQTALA
UniProt Q775D6: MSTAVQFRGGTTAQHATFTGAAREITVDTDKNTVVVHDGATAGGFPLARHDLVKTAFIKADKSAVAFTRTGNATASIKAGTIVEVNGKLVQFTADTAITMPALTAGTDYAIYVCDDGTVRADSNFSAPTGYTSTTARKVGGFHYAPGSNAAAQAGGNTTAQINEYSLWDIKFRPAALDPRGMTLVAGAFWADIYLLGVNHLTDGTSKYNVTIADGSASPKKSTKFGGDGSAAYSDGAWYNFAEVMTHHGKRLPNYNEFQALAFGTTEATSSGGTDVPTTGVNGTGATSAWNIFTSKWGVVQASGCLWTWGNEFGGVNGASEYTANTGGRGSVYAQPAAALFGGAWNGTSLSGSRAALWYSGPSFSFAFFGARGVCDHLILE

How the values were obtained:
[1] = molecular target: BSA (bovine) (UniProt P02769); test: condition: 1 µM in the methods; concentrations on the X-axis of Figure 3A; ELISA; target proteins coated on Maxisorp plates (200 nM, pH 9.6), blocked with 0.2% non-fat milk in PBS; Mtd-GST fusion proteins in blocking buffer for 1 h; detected with polyclonal rabbit anti-Mtd and HRP-conjugated anti-rabbit antibody; both purified
[2] = molecular target: ovalbumin (UniProt P01012); test: as above

## wild-type Mtd (major tropism determinant), Mtd-GST fusion protein (from UniProt Q775D6 1-381)
[1]
  binding: no binding
[2]
  binding: no binding
